The assay is described as follows: qHTS Assay to Find Inhibitors of Chronic Active B-Cell Receptor Signaling. The note with it: ABC-DLBCL IkBa-CBG/CBR reporter, luminescence ratio (green luciferase fused to IkBa over red control in TMD8 lymphoma cells), 4 h. In a few lines:
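Concentration-response series (up to 46 uM) were applied to TMD8 dual-reporter cells for 4 h at 37C with doxycycline. Green/red ratio, after filter-overlap correction, defined %Activity; red signal alone was normalised to basal cells and zero luminescence.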
(qHTS replaces the single test concentration by a dilution series.)

Setting [1] is: measured here: CBR red luminescence, cell number.
The mark [2] stands for this setting: measured here: IkBa-CBG green luminescence.

Values joined by “and” are separate entries in the source; they are usually repeats but may differ in a detail not shown here. Identical values can stand only once. Some of the results follow. Shown are side measurements of this screen, not its main read-out; they come without a call. Most of these compounds were active or inconclusive in the main read-out, so they are no random draw. The note in brackets gives the kind of curve behind each potency; many fits are weak.

With `CCN(CC(=O)NCc1ccc(Cl)cc1)C(=O)c1oc2ccccc2c1C`, the AC50 under setting [1] is 0.447 µM [falling, full curve, poor fit]. Same read-out and setting: to `Nc1ncn(C2O[C@H](CO)[C@@H](O)[C@H]2O)c(=O)n1` (stereo partly specified) belongs 9.2 µM [rising, partial curve]; to `O=C(c1ccccc1)N1CCN(c2ncnc3c(-c4ccccc4)nsc23)CC1`, 35.5 µM [rising, single point]; to `CSc1ccccc1NC(=O)C1CC(c2c(F)cccc2Cl)=NO1` (stereo unspecified), 1.26 µM [falling, partial curve, poor fit].

For the molecule `COCCOC(=O)C1=C(C)NC(=O)NC1c1cccc(F)c1` (stereo unspecified), the AC50 under setting [1] was 35.5 µM [rising, single point].

Turning to `COc1ccc(-c2csc3nc(-c4ccccc4OC)oc(=O)c23)cc1`, the AC50 under setting [1] was 3.16 µM [falling, full curve].

In the case of `O=C(Nc1ccc(CN2CCOCC2)cc1)c1cc2ccccn2n1`, under setting [1], the AC50 was 13 µM [falling, partial curve, poor fit].

On to `N/C(=N\OC(=O)c1cccc(Cl)c1)c1ccncc1`, for which the AC50 under setting [1] was 0.316 µM [rising, full curve, poor fit].

In the case of `Cc1c(C=O)c(=O)n(-c2ccccc2)n1-c1ccccc1`, the AC50 under setting [1] is 0.731 µM [rising, full curve, poor fit]. The same measure, in the same setting: the value for `Cc1ccc2c(CC(=O)NC3CCCc4ccccc43)coc2c1` (stereo unspecified) was 8.2 µM [falling, partial curve]; that for `CC(C)Cn1c(N)c(C(=O)COC(=O)c2cccnc2Cl)c(=O)n(C)c1=O` was 12.6 µM [rising, partial curve, poor fit]; that for `C=CCn1c(O)c(N=NC(=S)Nc2cccc(C)c2)c2ccccc21` was 1.84 µM [rising, full curve, poor fit]. Regarding `Cc1csc(NC(=O)COCC(=O)O)c1-c1nc2ccccc2s1`, the half-maximal activity concentration (AC50) under setting [1] is 35.5 µM [rising, single point]. In the case of `O=c1[nH]c(/C(=N\O)c2ccccc2)no1`, the AC50 is 5.17 µM [falling, partial curve] under setting [1] and 29.1 µM [falling, partial curve, poor fit] under setting [2]. With `Cc1cccc(C(=O)NNC(=O)c2ccccc2O)c1`, the AC50 under setting [1] was 2.51 µM [falling, full curve].

In the case of `O=C(N/N=C/c1ccccn1)c1ccc(NC(=O)c2ccc(F)cc2)cc1`, the AC50 under setting [1] is 2.51 µM [falling, partial curve, poor fit]. On the same count and under the same terms, to `CCN1CC2([N+](=O)[O-])CC=C(OC)C([N+](=O)[O-])(C1)C2` (stereo unspecified) belongs 23.1 µM [falling, single point]. Take `Cc1cc(NC(=O)Nc2cccc(Cl)c2)n(-c2ccccn2)n1`: the AC50 under setting [2] is 15.8 µM [rising, single point]. Regarding `Nc1nc(-c2ccccc2)c(C(=O)Nc2ccccc2)s1`, the AC50 was 35.5 µM [falling, partial curve, poor fit] under setting [1] and 7.94 µM [falling, partial curve, poor fit] under setting [2]. As for `Cn1c(O)c(N=NC(=O)c2ccccc2O)c2ccccc21`, under setting [1], the AC50 is 0.891 µM [falling, full curve]. The same measure, in the same setting: the value for `O=c1[nH]n(-c2ccc(Cl)cc2)c(=O)c(Cl)c1Cl` was 20 µM [falling, single point]; that for `Cc1ccc(C(=O)/C=C/c2ccc3c(c2)OCCO3)c(O)c1` was 35.5 µM [falling, single point].

As for `COCCCNC(=O)c1ccc2nc(Cc3ccc(OC)cc3)oc2c1`, the AC50 under setting [1] was 12.6 µM [rising, partial curve]. Same read-out and setting: the value for `NC(=O)Cn1nnc(-c2ccc(NC(=O)c3ccc(F)cc3)cc2)n1` was 12.6 µM [falling, single point]. `Cc1[nH]oc(=O)c1N=Nc1ccccc1`: the AC50 under setting [1] was 29.1 µM [rising, single point]. Take `COc1cc(-c2nc(C(=O)NCC3CCCO3)cc3c2[nH]c2ccccc23)cc(OC)c1OC` (stereo unspecified): the AC50 was 12.6 µM [rising, partial curve] under setting [1] and 15.8 µM [falling, single point] under setting [2]. Consider `O=C1C(Cl)=C(N2CCCCC2)C(=O)N1Cc1ccccc1`, for which, under setting [1], the AC50 is 2.31 µM [rising, full curve]. Still for that read-out and setting: the value for `CCOC(=O)Nc1oc2ccccc2c(=O)c1CN1CCOCC1` was 0.631 µM [rising, full curve]; that for `CCN(CC)C(=O)C(Oc1ccc(S(=O)(=O)N2CCCC2)cc1[N+](=O)[O-])c1ccccc1` (stereo unspecified) was 2.51 µM [falling, partial curve, poor fit]. Still for that read-out and setting: to `COc1ccc(C(C)(C)C)cc1NC(=O)c1ccc2ncsc2c1` belongs 22.4 µM [falling, single point]. On to `Cc1nc2ccc(C(=O)OCC(=O)N(C)c3ccccc3)cc2nc1C`, for which the AC50 under setting [1] was 0.082 µM [falling, full curve, poor fit]. For `CCN1C(=O)C(=O)N(CC(=O)c2cc(C)n(C3CC3)c2C)C1=O`, the AC50 under setting [1] is 20.6 µM [falling, partial curve]. As to `COc1c(O)cc2oc(-c3ccc(O)cc3)cc(=O)c2c1O`, the AC50 under setting [1] is 35.5 µM [falling, single point]. Same read-out and setting: the value for `CNCCCC12CCC(c3ccccc31)c1ccccc12` was 15.8 µM [falling, partial curve, poor fit] and 11.2 µM [falling, single point] and 14.6 µM [falling, partial curve, poor fit]. The same measure, in the same setting: to `CC(=O)c1cccc(NC(=S)NC(=O)c2ccccc2Br)c1` belongs 13 µM [falling, partial curve, poor fit]; to `COc1ccc(OC)c(S(=O)(=O)n2ccnc2C)c1`, 0.164 µM [rising, full curve, poor fit]; to `COCCNC(=O)c1ccc2c3n(nc2c1)-c1ccc(C)cc1CO3`, 14.1 µM [falling, single point]. For the molecule `O=C(/C=C/c1ccccc1)Nc1cc(S(=O)(=O)N2CCOCC2)ccc1N1CCOCC1`, the AC50 under setting [1] was 18.4 µM [rising, single point]. Take `CC(C)(CNC(=S)NCCc1ccccc1)CNC(=S)NCCc1ccccc1`: under setting [1], the AC50 is 29.1 µM [falling, single point]. Take `COc1cc(C=NNc2ccc(S(=O)(=O)Nc3ccccc3C(=O)O)cc2[N+](=O)[O-])ccc1O`: the AC50 is 29.1 µM [rising, single point] under setting [1] and 16.4 µM [falling, single point] under setting [2]. As for `Oc1ccccc1-c1cc(-c2ccccc2)n[nH]1`, under setting [1], the AC50 was 16.4 µM [falling, single point]. As for `Oc1ccc(-c2csc(-c3cccnc3)n2)c(O)c1`, the AC50 under setting [1] was 35.5 µM [falling, single point]. In the case of `[O-]/C(=C(\C(=S)Nc1ccccc1F)[n+]1ccccc1)c1ccc(-c2ccccc2)cc1`, under setting [1], the AC50 was 7.08 µM [falling, partial curve, poor fit]. `Cc1ccccc1S(=O)(=O)N1[C@@H](c2cccc(Cl)c2)C(C(=O)O)=CC[C@H]1c1ccc(Cl)cc1`: the AC50 under setting [1] was 10.3 µM [falling, partial curve, poor fit]. `CCOC(=O)c1c(/N=C/C2=C(O)CC(C)(C)CC2=O)sc(C(C)=O)c1C`: under setting [1], the AC50 is 11.2 µM [rising, partial curve, poor fit]. Still for that read-out and setting: the value for `CCCNC(=O)C1CCN(S(=O)(=O)c2ccc(-c3nn[nH]n3)cc2)CC1` was 1.64 µM [falling, partial curve, poor fit]; that for `COCCNC(=O)C(c1ccc(C)o1)N(Cc1cccs1)C(=O)c1snc(C(N)=O)c1N` (stereo unspecified) was 1.16 µM [falling, full curve].

As for `Cc1ccc(-c2ccc(=O)n(Cc3ccc(F)cc3)n2)cc1`, the AC50 under setting [1] was 17.8 µM [falling, partial curve]. The same measure, in the same setting: the value for `COC(=O)c1ccc(N=NN2CCCCC2)cc1` was 0.562 µM [rising, full curve, poor fit]; that for `O=C1NN(c2ccccc2)C(=O)/C1=C/c1ccc(-c2ccc(C(=O)O)cc2)o1` was 11.2 µM [falling, partial curve].

Take `C(=N\Nc1nncc2ccccc12)/c1ccccc1`: under setting [1], the AC50 was 12.6 µM [falling, single point]. Regarding `COc1cc(Cn2c(N)c(C#N)c3nc4ccccc4nc32)cc(OC)c1`, under setting [1], the AC50 is 25.1 µM [falling, single point]. Still for that read-out and setting: to `N#CC(C(=O)NC1CC1)c1nc2ccccc2nc1N1CCCC1` (stereo unspecified) belongs 17.8 µM [falling, partial curve, poor fit].

For `Cc1ccc(N2CCN(C(=O)c3cc(COc4c(C)cccc4C)on3)CC2)c(C)c1`, the AC50 under setting [1] is 0.355 µM [rising, partial curve, poor fit]. Same read-out and setting: the value for `COc1ccc2c(c1)CCC1C2=NN(/C(C)=C/C(C)=O)C1c1cccc(F)c1` (stereo unspecified) was 2.24 µM [rising, partial curve, poor fit]. Regarding `COc1ccc([C@H]2CC(=O)C=C(c3ccc(C)cc3)C2)cc1`, the AC50 under setting [2] is 25.9 µM [rising, partial curve, poor fit]. As to `O=C(O)CC12CC3CC(C1)CC(n1ncc(NCc4ccccc4)c(Cl)c1=O)(C3)C2`, the AC50 under setting [1] is 12.6 µM [rising, partial curve, poor fit]. Consider `CCN(C(=O)/C=C/c1ccc2c(c1)OCO2)c1ccccc1`, for which the AC50 under setting [1] is 0.92 µM [falling, full curve, poor fit]. On the same count and under the same terms, to `CCCNC(=O)C1(CC2CC(c3ccccc3)=NO2)CCN(C(=O)c2ccccc2)CC1` (stereo unspecified) belongs 8.2 µM [rising, partial curve, poor fit]; to `O=C(Cc1ccc(Cl)cc1)Nc1ccc(N2CCN(C(=O)c3ccco3)CC2)c(Cl)c1`, 22.4 µM [falling, single point]; to `Cc1noc(C)c1CSc1nc2ccccc2s1`, 2.91 µM [rising, partial curve, poor fit]. The same measure, in the same setting: the value for `Cc1ccc(NC(=O)Nc2nnc(Cc3ccc(F)cc3)s2)cc1` was 20 µM [rising, partial curve].

Broadly, the AC50 is the concentration giving half of the maximal activity seen.

These data come from PubChem BioAssay AID493014 (National Center for Advancing Translational Sciences (NCATS), 2011).
